The values below come from paper PMC5755467.

By UniProt entry, the sequences of proteins in these tests, tags left out.
UniProt Q92831: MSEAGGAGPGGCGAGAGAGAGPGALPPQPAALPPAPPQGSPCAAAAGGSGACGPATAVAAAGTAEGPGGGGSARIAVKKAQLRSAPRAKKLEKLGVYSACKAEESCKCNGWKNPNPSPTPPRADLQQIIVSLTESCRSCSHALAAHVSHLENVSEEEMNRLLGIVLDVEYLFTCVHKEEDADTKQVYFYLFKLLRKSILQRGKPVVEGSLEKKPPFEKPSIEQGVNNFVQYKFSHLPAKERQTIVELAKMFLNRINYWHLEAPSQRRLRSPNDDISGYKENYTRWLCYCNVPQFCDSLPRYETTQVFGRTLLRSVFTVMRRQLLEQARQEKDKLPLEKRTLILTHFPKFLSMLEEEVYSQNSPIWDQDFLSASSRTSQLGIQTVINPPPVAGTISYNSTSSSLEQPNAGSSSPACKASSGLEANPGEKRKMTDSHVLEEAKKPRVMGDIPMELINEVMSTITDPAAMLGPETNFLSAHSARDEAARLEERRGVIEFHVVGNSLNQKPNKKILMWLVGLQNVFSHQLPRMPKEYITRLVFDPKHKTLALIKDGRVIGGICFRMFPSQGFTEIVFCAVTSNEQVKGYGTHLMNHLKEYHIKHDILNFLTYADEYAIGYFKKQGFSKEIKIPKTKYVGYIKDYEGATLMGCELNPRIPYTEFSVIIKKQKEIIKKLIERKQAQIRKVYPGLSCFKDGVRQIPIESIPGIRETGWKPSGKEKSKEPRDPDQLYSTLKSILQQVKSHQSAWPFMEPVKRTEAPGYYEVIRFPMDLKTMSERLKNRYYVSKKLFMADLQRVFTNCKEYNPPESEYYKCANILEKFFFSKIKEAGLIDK

These are yes or no findings as the source states them, for the method shown. In cells and extracts the contact can be indirect. Some results given as binding are weak or reduced against the parent protein; the word gives no strength. For part of these data: Where a sequence is shown, tags or fusion partners need not be part of it.

Assay [1] addresses T1, GST-tagged Lin28B fusion protein (human (cDNA library from HEK293T cells)) (UniProt Q6ZN17).
T1 sequence: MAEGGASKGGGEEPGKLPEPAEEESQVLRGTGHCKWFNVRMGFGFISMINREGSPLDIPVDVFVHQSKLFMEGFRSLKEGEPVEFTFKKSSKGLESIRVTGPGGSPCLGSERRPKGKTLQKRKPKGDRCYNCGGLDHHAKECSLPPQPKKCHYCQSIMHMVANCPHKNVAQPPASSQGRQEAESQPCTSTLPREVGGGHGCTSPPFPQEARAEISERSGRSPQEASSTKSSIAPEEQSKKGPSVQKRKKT
The assay can be described thus: pull-down; GST or GST-tagged Lin28B on beads incubated with whole cell extracts of HEK293T cells ectopically expressing FLAG-PCAF at 4 °C overnight; western blot; only the target purified.

Assay [2] concerns the target T2, GFP-tagged Lin28B (human (cDNA library from HEK293T cells)) (UniProt Q6ZN17).
T2 sequence: T1 sequence
The assay can be described thus: co-IP; HEK293T cells co-transfected with GFP-tagged Lin28B (or its GFP-tagged fragments L1~L7) and FLAG-PCAF; whole cell extracts IP-ed with anti-GFP beads at 4 °C overnight; blot with anti-FLAG; lysis buffer 50 mM HEPES pH 7.5, 150 mM NaCl, 1% Triton X-100.

A further assay deals with FLAG-PCAF (UniProt Q92831). The assay can be described thus: co-IP; whole cell extracts of FLAG-PCAF or PCAF-ΔHAT-transfected cells IP-ed with anti-FLAG; blotted with anti-FLAG and anti-Lin28B (endogenous Lin28B); IP with IgG as control.

Take “FLAG-PCAF (from UniProt Q92831 1-832) (enzyme)”: the binding entry in assay [1] and in assay [2] was “binds” each time.

B1: Lin28B (endogenous) (protein, UniProt Q6ZN17 1-250)
chain: T1 sequence
Take B1: the binding entry in the assay with FLAG-PCAF is “binds”.
